No end group written: not given here.
Test system: hRpn13 Pru
Assay: Crystal structure of hRpn13 Pru:ENT (atomic distances)
Format: binding, human

With GPGSMTT [ENT] the Distance (Pru-A Gly 91 Cα to ENT Met 1 Cε) was 3.77 Å, the Distance (Pru-A Gly 91 N to ENT Met 1 Cε) was 3.69 Å and the Distance (Pru-A Lys 42 Cγ to ENT Ser d O) was 3.76 Å. It also gave a Distance (Pru-A Lys 42 Cδ to ENT Thr 2 O) of 3.76 Å, a Distance (Pru-A Lys 42 Cε to ENT Gly c O) of 3.17 Å and a Distance (Pru-A Lys 42 Cε to ENT Ser d C) of 3.67 Å. The Distance (Pru-A Lys 42 Cε to ENT Ser d O) was 3.22 Å, the Distance (Pru-A Lys 42 Cε to ENT Thr 2 O) was 3.41 Å and the Distance (Pru-A Lys 42 Nζ to ENT Gly c C) was 3.84 Å. It also gave a Distance (Pru-A Lys 42 Nζ to ENT Gly c O) of 2.66 Å, a Distance (Pru-A Lys 42 Nζ to ENT Pro b Cγ) of 3.76 Å and a Distance (Pru-A Lys 42 Nζ to ENT Pro b Cδ) of 3.82 Å. For the same substance, the Distance (Pru-A Lys 42 Nζ to ENT Thr 2 O) was 2.74 Å, the Distance (Pru-A Pro 40 Cβ to ENT Met 1 Cγ) was 3.67 Å and the Distance (Pru-A Pro 40 Cβ to ENT Ser d O) was 3.56 Å. The Distance (Pru-A Pro 40 Cγ to ENT Ser d Cβ) was 3.73 Å, the Distance (Pru-A Pro 40 Cγ to ENT Ser d Oγ) was 3.61 Å and the Distance (Pru-A Pro 40 Cδ to ENT Ser d Cβ) was 3.9 Å. It also gave a Distance (Pru-A Ser 90 C to ENT Met 1 Cε) of 3.62 Å, a Distance (Pru-A Ser 90 O to ENT Met 1 Cβ) of 3.9 Å and a Distance (Pru-A Ser 90 O to ENT Met 1 Cε) of 3.63 Å. It also gave a Distance (Pru-A Trp 108 CH2 to ENT Met 1 O) of 3.78 Å, a Distance (Pru-A Trp 108 Cβ to ENT Met 1 Sδ) of 3.59 Å and a Distance (Pru-A Trp 108 Cγ to ENT Met 1 Cγ) of 3.88 Å. The Distance (Pru-A Trp 108 Cγ to ENT Met 1 Sδ) was 3.73 Å, the Distance (Pru-A Trp 108 Cδ2 to ENT Met 1 Cγ) was 3.65 Å and the Distance (Pru-A Trp 108 Cε3 to ENT Met 1 Cβ) was 3.8 Å. The Distance (Pru-A Trp 108 Cζ3 to ENT Met 1 O) was 3.44 Å, the Distance (Pru-A Val 93 Cγ2 to ENT Met 1 Sδ) was 3.85 Å and the “distance N68 Oδ1 (Pru-C) to ^aG amide nitrogen” value (x-ray structure) was 4.2 Å.

Source: publication PMC12218921, “An adaptive peptide-binding site in ubiquitin receptor hRpn13 revealed by structural studies” (Nature Communications, 2025)
